# From publication PMC7280311
# Sequences of proteins named here, by UniProt entry; tags and fusion partners are left off. Residues count along the entry.
# UniProt Q9BXM7, residues 78-581: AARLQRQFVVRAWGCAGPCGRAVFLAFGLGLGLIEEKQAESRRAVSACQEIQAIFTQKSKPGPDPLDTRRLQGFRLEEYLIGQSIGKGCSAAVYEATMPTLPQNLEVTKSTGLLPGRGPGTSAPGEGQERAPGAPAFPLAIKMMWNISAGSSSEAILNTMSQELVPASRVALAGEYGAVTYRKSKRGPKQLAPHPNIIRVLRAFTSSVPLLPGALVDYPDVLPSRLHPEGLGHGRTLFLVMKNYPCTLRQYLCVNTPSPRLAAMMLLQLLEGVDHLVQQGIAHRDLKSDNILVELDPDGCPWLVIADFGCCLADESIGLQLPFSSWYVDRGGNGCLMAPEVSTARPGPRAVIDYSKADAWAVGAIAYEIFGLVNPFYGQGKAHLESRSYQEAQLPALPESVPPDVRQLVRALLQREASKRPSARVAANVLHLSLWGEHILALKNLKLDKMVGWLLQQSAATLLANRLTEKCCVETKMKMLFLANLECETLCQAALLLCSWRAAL
# UniProt O14746: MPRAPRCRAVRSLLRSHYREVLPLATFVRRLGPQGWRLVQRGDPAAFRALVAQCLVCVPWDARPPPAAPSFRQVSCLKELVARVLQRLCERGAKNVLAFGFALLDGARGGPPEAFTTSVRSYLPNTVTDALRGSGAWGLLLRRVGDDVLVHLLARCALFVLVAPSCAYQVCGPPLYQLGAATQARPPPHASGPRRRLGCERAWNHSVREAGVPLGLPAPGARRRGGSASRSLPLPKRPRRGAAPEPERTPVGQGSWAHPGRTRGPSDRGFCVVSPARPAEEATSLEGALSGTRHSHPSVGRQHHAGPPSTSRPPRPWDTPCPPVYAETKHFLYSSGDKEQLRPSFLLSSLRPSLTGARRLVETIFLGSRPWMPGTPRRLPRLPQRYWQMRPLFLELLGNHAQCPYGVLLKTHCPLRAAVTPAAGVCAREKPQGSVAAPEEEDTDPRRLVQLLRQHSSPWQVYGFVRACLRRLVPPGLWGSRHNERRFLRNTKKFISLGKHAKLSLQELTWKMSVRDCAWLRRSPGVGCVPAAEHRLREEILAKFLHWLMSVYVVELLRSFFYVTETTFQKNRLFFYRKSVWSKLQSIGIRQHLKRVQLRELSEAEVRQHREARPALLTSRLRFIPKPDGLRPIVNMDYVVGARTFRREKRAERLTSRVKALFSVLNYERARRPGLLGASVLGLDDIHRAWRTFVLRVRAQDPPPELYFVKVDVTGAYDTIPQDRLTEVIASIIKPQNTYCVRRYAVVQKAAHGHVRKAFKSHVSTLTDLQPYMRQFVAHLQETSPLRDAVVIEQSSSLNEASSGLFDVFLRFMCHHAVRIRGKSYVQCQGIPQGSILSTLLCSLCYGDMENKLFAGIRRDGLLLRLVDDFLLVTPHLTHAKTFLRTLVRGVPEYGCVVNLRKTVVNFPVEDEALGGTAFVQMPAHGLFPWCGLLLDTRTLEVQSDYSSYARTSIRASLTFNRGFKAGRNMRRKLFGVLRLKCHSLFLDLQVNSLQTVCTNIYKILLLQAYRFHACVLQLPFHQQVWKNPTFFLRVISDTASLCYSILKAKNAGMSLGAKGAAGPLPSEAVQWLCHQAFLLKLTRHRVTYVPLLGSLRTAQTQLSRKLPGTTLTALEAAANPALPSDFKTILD
# Results are given in words; binding and its absence hold for the method and conditions named. Binding seen in cells or lysates may run through a third protein. Some results given as binding are weak or reduced against the parent protein; the word gives no strength. For some assays here: Sequences can lack the tags named with a protein.
# Experiments:
# [1] = molecular target: T1, FLAG-tagged mitochondrial processing peptidase β (FLAG-MPPβ) (UniProt O75439); test: co-IP; HEK293 cells transfected (24 h or 48 h) with FLAG-MPPβ and Myc-PINK1 or hTERT-HA; total cell lysates immunoprecipitated with anti-FLAG antibody, immunoblotted
# T1 sequence: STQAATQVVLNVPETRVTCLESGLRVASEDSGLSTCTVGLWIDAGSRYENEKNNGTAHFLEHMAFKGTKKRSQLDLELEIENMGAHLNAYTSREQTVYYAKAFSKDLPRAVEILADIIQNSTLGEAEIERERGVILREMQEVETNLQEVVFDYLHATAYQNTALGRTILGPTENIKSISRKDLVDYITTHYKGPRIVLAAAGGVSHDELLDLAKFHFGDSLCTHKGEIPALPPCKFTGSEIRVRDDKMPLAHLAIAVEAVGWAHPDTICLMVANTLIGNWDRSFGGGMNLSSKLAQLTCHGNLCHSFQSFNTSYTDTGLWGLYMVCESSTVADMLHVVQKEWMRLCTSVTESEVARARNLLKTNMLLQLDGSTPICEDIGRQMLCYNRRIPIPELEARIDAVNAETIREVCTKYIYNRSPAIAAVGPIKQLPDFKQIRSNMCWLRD
# [2] = molecular target: endogenous PINK1 (SH-SY5Y cells) (human (endogenous in SH-SY5Y)) (UniProt Q9BXM7); test: co-IP; SH-SY5Y cell lysates immunoprecipitated with anti-PINK1 IgG (pre-immune IgG as negative control), immunoblotted; endogenous proteins
Substance,binding [1],binding [2]
HA-tagged human telomerase reverse transcriptase (hTERT-HA) (from UniProt O14746 1-1132),binds,–
endogenous hTERT (SH-SY5Y cells) (from UniProt O14746 1-1132),–,binds
